Changes are numbered by the printed parent chain. Results are given in words; binding and its absence hold for the method and conditions named. Some binding calls cover weakened binding; strength is not graded here. One block for each binder: values may come before it.
Columns and labels:
[1] = target: human GPVI extracellular region-human Fc fusion protein (hGPVI-hFc) (human); assay: binding to antigen of co-expressed chains; antigen construct not named
[2] = target: cynomolgus monkey D1D2-human D3 chimeric GPVI-human Fc fusion protein (GPVI-FFH-hFc) (cynomolgus monkey (D1, D2), human (D3)); assay: ELISA on immobilised GPVI-FFH-hFc, anti-human kappa detection
[3] = target: cynomolgus monkey GPVI on cynomolgus monkey platelets (cynomolgus monkey); assay: flow cytometry on platelets, 10 µg/mL, anti-human IgG-FITC

binding [1]: binds
B1: chimeric F1232-37-2 heavy chain with humanized light chain REI-KA (antibody, human IgG4, V domains shown)
VH: VQLQQSGPELVRPGESVKISCKGSGYTFTDYAIHWVKLSHAKSLEWIGVISIYYDDTNYNQKFKGKATMTVDKSSSTAYLELARLTSEDSAIYYCARRRDSSGPYAMDYWGQGTSVTVSS
VL: DIQMTQSPSSLSASVGDRVTITCRASESVDSYGNSFMHWYQQKPGKAPKLLIYRASNLESGVPSRFSGSGSGTDFTFTISSLQPEDIATYYCQQSNEDPYTFGQGTKVEIKR

binding [1]: binds
B2: chimeric F1232-37-2 heavy chain with humanized light chain Eu-KA (antibody, human IgG4, V domains shown)
VH: B1 VH
VL: B1 VL with S10T, I52M, S67I, D74E, F77L, E85D, I87F, I110V

binding [1]: binds
B3: F1232-37-2 humanized heavy chain Eu-HC with the chimeric light chain (antibody, V domains shown)
VH: QVQLVQSGAEVKKPGSSVKVSCKASGGTFSDYAIHWVRQAPGQGLEWIGVISIYYDDTNYNQKFKGKATITADESTNTAYMELSSLRSEDTAIYYCARRRDSSGPYAMDYWGQGTLVTVSS
VL: DIVLTQSPASLAVSLGQRATISCRASESVDSYGNSFMHWYQQKPGQPPKLLIYRASNLESGIPARFSGSGSRTDFTLTINPVEADDVATYYCQQSNEDPYTFGGGTKLEIKR

binding [2]: binds
B4: anti-GPVI mouse-human chimeric antibody (Clone No. F1232-7-1) (antibody, human IgG4, V domains shown)
VH: B1 VH with L80M
VL: B3 VL

binding [3]: binds
B5: cF1232-37-2S (antibody, V domains shown)
VH: B1 VH
VL: B3 VL

Source: US20110217318A1
